No constants are given. Whether binding was seen depends on the method and setting. In cells and extracts the contact can be indirect.
Tests used:
Assay in all cases: co-IP; HEK293T co-transfected with pcDNA3-HA-MAVS and Flag-tagged constructs, 36 h; lysis in HEPES 20 mM pH 7.5, NaCl 150 mM, Triton X-100 1%, DTT 1 mM; anti-flag M2 affinity gel, 4 °C, 4 h; immunoblotting (Fig. 2d, 3b)
[1] = molecular target: Flag-SUMO-Pex13-TM (UniProt Q92968)
[2] = molecular target: Flag-SUMO-VAMP-2-TM (UniProt P63027)
[3] = molecular target: Flag-SUMO-Bcl-xL-TM (UniProt Q07817)

Sequences of proteins named here, by UniProt entry; tags and fusion partners are left off. Residues count along the entry.
UniProt Q92968, residues 136-233: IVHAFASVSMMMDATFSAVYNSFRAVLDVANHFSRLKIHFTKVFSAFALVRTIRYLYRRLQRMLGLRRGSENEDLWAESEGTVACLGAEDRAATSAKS
UniProt P63027, residues 84-116: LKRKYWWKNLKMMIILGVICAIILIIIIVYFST
UniProt Q07817, residues 202-233: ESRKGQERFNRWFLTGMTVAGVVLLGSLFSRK
UniProt Q7Z434: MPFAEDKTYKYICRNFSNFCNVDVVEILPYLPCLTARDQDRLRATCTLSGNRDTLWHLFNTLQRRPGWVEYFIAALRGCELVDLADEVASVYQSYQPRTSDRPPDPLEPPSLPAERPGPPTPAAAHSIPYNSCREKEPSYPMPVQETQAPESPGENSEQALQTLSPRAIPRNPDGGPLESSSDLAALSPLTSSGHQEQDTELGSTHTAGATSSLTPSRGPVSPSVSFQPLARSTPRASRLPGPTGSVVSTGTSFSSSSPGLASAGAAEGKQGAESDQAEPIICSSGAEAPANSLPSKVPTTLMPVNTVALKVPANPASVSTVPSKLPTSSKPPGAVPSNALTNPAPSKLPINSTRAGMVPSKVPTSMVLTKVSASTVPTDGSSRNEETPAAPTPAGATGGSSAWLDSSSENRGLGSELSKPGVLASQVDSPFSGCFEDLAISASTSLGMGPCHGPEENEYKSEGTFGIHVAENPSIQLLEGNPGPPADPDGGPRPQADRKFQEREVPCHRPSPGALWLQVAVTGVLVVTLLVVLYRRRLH

Measured: binding

HA-tagged full-length MAVS (from UniProt Q7Z434 1-540)
no binding: all assays above

From publication PMC5474743
